This is one part of the list.
Columns and labels:
Test in all cases: log2 fold change, soluble protein after heating vs DMSO (PISA); higher = thermal stabilisation; K562 cells, 10 uM, 30 min; active = over 0.2 and 3.5 SD of the protein, either way, in both replicates (recomputed)
[1] = compound: CS(=O)(=O)c1ccc(-c2cnc(N)c(C(=O)Nc3ccccc3)n2)cc1
In short: (§1)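 Soluble protein was quantified by TMTpro 16plex LC-MS/MS after channel sums were equalised. It was obtained as the supernatant after 21,000xg for 90 min from pooled aliquots of K562 cells (2×10^6 cells/mL, 10 μM compound, 30 min) heated for 3 min across 48°C-58°C and extracted in PBS with 0.5% NP-40 at 4°C. Thermal stability values are relative to control samples and come from duplicates. They are given as log2 fold changes.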

Sequences of proteins named here, by UniProt entry; tags and fusion partners are left off. A change or cut given only in a name is not applied to a line headed by its entry.
UniProt Q9BXJ9: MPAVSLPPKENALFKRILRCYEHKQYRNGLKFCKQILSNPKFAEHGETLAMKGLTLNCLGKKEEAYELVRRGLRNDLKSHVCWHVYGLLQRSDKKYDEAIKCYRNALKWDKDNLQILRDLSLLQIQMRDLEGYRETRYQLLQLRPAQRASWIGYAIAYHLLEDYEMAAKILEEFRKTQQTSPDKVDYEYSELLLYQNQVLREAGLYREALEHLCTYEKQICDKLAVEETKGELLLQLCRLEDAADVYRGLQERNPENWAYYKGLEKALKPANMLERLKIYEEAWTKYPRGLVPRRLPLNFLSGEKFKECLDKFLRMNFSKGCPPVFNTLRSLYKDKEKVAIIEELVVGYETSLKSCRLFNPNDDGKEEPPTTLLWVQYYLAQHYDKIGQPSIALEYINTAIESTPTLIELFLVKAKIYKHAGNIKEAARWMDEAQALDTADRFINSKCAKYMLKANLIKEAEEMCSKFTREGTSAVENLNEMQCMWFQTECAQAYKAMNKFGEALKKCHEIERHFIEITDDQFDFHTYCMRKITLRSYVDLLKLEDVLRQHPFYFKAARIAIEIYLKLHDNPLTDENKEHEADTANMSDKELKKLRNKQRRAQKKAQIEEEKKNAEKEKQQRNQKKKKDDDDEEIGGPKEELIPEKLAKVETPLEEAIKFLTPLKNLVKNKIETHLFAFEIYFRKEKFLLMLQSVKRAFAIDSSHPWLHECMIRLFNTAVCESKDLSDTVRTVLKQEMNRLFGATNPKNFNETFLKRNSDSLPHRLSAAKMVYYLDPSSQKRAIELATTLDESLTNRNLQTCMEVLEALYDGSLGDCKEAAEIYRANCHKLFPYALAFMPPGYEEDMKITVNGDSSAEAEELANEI
UniProt Q5VZE5: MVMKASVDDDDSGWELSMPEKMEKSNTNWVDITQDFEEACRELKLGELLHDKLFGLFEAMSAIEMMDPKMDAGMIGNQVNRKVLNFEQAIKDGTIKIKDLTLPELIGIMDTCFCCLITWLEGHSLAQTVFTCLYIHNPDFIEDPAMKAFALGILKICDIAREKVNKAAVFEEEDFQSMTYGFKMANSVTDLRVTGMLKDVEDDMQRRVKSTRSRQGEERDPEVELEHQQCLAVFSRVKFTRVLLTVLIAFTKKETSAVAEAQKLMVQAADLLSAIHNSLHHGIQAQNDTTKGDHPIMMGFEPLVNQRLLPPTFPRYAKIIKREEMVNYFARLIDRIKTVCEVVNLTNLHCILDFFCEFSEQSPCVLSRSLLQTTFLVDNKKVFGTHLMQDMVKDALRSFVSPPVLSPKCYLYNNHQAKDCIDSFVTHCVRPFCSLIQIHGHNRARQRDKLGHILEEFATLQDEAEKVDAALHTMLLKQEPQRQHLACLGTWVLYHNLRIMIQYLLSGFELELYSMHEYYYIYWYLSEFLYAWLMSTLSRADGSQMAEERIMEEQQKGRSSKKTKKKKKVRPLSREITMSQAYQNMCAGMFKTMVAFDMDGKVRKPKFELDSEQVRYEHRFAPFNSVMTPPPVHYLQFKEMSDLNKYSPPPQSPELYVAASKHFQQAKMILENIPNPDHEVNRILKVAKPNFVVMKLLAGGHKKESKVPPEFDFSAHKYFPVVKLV
UniProt Q8IW45: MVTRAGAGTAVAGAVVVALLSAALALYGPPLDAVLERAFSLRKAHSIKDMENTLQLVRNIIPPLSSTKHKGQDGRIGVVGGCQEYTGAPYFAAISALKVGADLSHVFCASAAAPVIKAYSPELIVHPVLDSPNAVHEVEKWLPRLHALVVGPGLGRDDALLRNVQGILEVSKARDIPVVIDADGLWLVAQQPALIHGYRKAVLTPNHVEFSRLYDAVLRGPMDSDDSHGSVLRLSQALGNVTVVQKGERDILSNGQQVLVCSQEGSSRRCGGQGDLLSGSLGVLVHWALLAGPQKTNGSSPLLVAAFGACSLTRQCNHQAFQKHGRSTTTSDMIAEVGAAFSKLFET
UniProt Q92542, whole entry, looked up: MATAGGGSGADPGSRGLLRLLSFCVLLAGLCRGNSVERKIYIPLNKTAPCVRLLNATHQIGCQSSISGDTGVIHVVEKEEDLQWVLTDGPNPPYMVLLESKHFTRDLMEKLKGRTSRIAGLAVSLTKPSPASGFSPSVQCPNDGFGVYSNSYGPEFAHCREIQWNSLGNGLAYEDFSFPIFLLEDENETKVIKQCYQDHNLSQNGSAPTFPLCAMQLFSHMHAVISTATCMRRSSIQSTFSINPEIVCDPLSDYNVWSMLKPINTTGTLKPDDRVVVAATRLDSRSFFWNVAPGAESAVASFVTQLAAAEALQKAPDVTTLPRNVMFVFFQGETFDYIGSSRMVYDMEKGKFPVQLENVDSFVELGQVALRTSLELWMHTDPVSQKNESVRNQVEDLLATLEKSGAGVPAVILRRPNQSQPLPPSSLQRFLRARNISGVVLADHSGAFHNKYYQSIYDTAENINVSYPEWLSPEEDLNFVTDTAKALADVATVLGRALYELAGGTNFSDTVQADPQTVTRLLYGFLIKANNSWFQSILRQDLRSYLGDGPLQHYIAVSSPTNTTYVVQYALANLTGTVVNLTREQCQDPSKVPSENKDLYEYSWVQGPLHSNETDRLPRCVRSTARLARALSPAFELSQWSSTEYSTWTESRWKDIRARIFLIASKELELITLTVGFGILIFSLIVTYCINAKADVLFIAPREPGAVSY
UniProt P49821, whole entry, looked up: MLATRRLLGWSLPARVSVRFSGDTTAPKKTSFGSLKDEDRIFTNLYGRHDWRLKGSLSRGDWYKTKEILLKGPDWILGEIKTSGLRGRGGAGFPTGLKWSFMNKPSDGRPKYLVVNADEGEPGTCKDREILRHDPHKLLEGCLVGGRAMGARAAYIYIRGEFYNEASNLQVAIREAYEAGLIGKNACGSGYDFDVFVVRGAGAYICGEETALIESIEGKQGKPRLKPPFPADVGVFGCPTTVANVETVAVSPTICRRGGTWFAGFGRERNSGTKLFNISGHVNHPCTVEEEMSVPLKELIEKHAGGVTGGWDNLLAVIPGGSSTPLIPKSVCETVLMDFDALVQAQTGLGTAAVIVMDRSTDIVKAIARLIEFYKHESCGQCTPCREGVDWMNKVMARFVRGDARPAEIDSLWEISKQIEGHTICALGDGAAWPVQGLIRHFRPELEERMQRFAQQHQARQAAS
UniProt P51970, whole entry, looked up: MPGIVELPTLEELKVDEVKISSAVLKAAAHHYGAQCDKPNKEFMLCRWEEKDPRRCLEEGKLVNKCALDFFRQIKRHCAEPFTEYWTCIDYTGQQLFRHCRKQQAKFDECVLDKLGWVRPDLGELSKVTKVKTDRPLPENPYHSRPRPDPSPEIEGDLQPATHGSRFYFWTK
UniProt O76041: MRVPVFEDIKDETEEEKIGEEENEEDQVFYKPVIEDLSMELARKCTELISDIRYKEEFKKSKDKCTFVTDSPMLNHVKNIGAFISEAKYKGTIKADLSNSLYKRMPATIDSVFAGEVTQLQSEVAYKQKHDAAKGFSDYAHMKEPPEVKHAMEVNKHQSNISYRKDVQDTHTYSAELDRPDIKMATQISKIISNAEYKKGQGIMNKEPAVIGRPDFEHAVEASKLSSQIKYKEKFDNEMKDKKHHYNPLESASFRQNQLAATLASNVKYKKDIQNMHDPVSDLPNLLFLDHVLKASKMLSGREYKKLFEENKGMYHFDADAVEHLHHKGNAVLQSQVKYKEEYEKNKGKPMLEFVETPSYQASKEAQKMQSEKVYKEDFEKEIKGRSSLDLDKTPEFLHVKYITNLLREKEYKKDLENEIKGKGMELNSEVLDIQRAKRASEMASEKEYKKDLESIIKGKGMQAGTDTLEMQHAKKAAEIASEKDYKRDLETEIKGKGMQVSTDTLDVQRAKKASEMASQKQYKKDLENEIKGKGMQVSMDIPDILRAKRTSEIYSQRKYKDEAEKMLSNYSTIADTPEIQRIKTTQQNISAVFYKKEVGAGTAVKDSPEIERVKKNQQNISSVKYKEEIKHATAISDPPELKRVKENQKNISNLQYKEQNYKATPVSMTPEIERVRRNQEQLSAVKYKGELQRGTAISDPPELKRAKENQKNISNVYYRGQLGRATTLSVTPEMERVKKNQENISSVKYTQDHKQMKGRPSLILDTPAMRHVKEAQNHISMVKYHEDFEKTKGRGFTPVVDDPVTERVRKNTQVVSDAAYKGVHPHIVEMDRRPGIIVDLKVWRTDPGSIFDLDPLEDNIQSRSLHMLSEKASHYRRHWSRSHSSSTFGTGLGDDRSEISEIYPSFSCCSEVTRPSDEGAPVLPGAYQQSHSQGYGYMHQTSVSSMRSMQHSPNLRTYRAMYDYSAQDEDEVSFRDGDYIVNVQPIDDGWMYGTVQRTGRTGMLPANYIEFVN
UniProt Q9UGV2: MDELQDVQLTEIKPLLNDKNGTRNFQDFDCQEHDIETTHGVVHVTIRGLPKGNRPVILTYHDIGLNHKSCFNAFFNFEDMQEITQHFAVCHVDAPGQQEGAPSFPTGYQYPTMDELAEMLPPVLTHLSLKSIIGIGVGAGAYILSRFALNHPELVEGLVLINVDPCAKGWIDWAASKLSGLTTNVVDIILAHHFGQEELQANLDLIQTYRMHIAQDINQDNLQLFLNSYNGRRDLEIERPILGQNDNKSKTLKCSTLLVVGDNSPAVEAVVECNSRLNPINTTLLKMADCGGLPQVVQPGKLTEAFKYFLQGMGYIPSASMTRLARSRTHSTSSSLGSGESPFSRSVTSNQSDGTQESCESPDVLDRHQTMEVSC
UniProt Q6NZ67, whole entry, looked up: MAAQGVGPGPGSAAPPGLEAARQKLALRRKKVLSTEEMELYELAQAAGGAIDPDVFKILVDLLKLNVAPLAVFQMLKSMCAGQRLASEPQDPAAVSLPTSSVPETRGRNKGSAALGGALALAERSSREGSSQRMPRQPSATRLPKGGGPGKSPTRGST
UniProt Q147X3: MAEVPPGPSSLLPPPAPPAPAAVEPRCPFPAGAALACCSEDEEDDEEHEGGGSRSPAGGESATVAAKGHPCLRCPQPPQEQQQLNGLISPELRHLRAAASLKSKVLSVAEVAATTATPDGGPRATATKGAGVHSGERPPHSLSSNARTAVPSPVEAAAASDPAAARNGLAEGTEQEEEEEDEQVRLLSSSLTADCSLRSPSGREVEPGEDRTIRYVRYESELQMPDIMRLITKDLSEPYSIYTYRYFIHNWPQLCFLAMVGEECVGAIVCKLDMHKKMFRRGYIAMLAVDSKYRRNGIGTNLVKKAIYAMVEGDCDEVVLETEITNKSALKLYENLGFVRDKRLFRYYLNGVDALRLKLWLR
UniProt Q9BU61: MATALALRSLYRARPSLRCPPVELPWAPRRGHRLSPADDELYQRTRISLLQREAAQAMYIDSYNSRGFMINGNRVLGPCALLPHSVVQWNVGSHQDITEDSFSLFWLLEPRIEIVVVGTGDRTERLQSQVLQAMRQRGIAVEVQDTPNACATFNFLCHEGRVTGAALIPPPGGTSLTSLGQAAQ
UniProt Q9P0J0, whole entry, looked up: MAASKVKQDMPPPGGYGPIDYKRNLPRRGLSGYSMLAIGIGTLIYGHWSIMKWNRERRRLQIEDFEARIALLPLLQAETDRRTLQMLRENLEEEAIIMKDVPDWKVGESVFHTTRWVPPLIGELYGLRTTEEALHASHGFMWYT
UniProt Q9H0A0: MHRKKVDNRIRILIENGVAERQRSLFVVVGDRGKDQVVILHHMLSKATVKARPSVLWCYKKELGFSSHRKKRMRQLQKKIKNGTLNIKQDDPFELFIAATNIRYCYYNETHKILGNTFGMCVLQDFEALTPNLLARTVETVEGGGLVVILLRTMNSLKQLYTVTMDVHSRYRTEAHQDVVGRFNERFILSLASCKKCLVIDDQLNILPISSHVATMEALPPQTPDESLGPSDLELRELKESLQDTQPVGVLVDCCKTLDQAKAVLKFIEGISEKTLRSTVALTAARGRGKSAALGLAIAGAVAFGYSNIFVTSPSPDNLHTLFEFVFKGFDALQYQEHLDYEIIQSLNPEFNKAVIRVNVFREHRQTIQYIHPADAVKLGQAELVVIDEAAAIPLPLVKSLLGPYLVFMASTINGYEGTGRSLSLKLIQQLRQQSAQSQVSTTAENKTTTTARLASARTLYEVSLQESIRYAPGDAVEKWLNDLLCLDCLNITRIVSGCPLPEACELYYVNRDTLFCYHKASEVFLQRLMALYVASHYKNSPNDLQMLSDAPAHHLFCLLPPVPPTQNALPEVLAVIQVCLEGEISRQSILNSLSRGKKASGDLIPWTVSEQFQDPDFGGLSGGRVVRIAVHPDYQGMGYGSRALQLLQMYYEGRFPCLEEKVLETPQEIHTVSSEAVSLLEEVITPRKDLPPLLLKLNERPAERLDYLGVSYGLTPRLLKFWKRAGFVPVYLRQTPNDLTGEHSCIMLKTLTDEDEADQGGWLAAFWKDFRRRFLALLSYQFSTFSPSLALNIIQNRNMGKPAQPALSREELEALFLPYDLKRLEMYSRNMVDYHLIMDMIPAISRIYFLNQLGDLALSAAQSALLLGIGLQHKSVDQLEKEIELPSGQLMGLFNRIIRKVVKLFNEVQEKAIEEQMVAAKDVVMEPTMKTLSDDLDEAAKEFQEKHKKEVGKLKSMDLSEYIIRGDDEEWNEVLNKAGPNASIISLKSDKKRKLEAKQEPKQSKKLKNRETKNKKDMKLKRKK

crizotinib = compound: C[C@@H](Oc1cc(-c2cnn(C3CCNCC3)c2)cnc1N)c1c(Cl)ccc(F)c1Cl [crizotinib]
In short: as §1

[2] = compound: C[C@@H]1COCCN1C2=NC(=NC(=C2)C3(CC3)S(=O)(=O)C)C4=C5C=CNC5=CC=C4
In short: as §1

[3] = compound: C[C@H](C1=CC=C(C=C1)C(=O)NC2=C3C=CNC3=NC=C2)N
In short: as §1

duvelisib = compound: C[C@H](Nc1ncnc2nc[nH]c12)c1cc2cccc(Cl)c2c(=O)n1-c1ccccc1 [duvelisib]
In short: as §1

gandotinib = compound: Cc1cc(Nc2cc(CN3CCOCC3)c3nc(C)c(Cc4ccc(Cl)cc4F)n3n2)n[nH]1 [gandotinib]
In short: as §1

tozasertib = compound: Cc1cc(Nc2cc(N3CCN(C)CC3)nc(Sc3ccc(NC(=O)C4CC4)cc3)n2)n[nH]1 [tozasertib]
In short: as §1

[4] = compound: Cc1cc(SCc2sc(-c3ccc(C(F)(F)F)cc3)nc2C)ccc1OCC(=O)O
In short: as §1

doramapimod = compound: Cc1ccc(-n2nc(C(C)(C)C)cc2NC(=O)Nc2ccc(OCCN3CCOCC3)c3ccccc23)cc1 [doramapimod]
In short: as §1

ispinesib = compound: Cc1ccc(C(=O)N(CCCN)[C@@H](c2nc3cc(Cl)ccc3c(=O)n2Cc2ccccc2)C(C)C)cc1 [ispinesib]
In short: as §1

bafetinib = compound: Cc1ccc(NC(=O)c2ccc(CN3CC[C@H](N(C)C)C3)c(C(F)(F)F)c2)cc1Nc1nccc(-c2cncnc2)n1 [bafetinib]
In short: as §1

[5] = compound: Cc1cccc(CC(=O)N2CCc3c2ccc(-c2cn(C)c4ncnc(N)c24)c3F)n1
In short: as §1

nilotinib = compound: Cc1cn(-c2cc(NC(=O)c3ccc(C)c(Nc4nccc(-c5cccnc5)n4)c3)cc(C(F)(F)F)c2)cn1 [nilotinib]
In short: as §1

[6] = compound: Cc1nc(Nc2n[nH]c3c2CN(C(=O)N[C@H](CN(C)C)c2ccccc2)C3(C)C)c2sccc2n1
In short: as §1

dasatinib = compound: Cc1nc(Nc2ncc(C(=O)Nc3c(C)cccc3Cl)s2)cc(N2CCN(CCO)CC2)n1 [dasatinib]
In short: as §1

[7] = compound: Cc1ncc(-c2ccnc(Nc3ccc(S(C)(=O)=O)cc3)n2)n1C(C)C
In short: as §1

[8] = compound: Cn1cc(-c2ccc3c(c2)CCN3C(=O)Cc2cccc(C(F)(F)F)c2)c2c(N)ncnc21
In short: as §1

[9] = compound: Cn1cc(-c2ccc3nnc(C(F)(F)c4ccc5ncccc5c4)n3n2)cn1
In short: as §1

tipifarnib = compound: Cn1cncc1[C@@](N)(c1ccc(Cl)cc1)c1ccc2c(c1)c(-c1cccc(Cl)c1)cc(=O)n2C [tipifarnib]
In short: as §1

mubritinib = compound: FC(F)(F)c1ccc(/C=C/c2nc(COc3ccc(CCCCn4ccnn4)cc3)co2)cc1 [mubritinib]
In short: as §1

Measured: log2 fold change

NDUFS1 isoform 2 (UniProt P28331)
inactive: [1] 0.024 | crizotinib -0.071 | [2] 0.068 | [3] -0.023 | duvelisib 0.013 | gandotinib -0.08 | tozasertib -0.023 | [4] 0.06 | doramapimod -0.018 | ispinesib -0.106 | bafetinib 0.026 | [5] 0.075 | nilotinib -0.053 | [6] 0.001 | dasatinib -0.112 | [7] -0.016 | [8] 0.048 | [9] 0.036 | tipifarnib -0.034 | mubritinib 0.131

NAA15 (UniProt Q9BXJ9)
inactive: [1] 0.018 | crizotinib -0.024 | [2] 0.049 | [3] -0.101 | duvelisib -0.002 | gandotinib -0.081 | tozasertib -0.026 | [4] 0 | doramapimod -0.004 | ispinesib 0.021 | bafetinib -0.024 | [5] 0.016 | nilotinib -0.029 | [6] -0.024 | dasatinib -0.052 | [7] -0.02 | [8] 0.051 | [9] 0.01 | tipifarnib -0.022 | mubritinib -0.008

NAA35 (UniProt Q5VZE5)
inactive: [1] 0.042 | crizotinib -0.069 | [2] -0.013 | [3] -0.026 | duvelisib 0.027 | gandotinib -0.023 | tozasertib -0.061 | [4] 0.022 | doramapimod 0.025 | ispinesib 0.007 | bafetinib -0.035 | [5] 0.065 | nilotinib -0.013 | [6] 0.001 | dasatinib -0.106 | [7] -0.004 | [8] 0.042 | [9] -0.001 | tipifarnib -0.01 | mubritinib 0.004

NAXD (UniProt Q8IW45)
inactive: [1] -0.016 | crizotinib 0.064 | [2] -0.041 | [3] -0.069 | duvelisib -0.012 | gandotinib 0.122 | tozasertib 0 | [4] -0.029 | doramapimod -0.002 | ispinesib 0.026 | bafetinib -0.034 | [5] 0.036 | nilotinib -0.024 | [6] -0.02 | dasatinib 0 | [7] -0.051 | [8] 0.043 | [9] -0.04 | tipifarnib 0.027 | mubritinib 0.05

NDUFS3 (UniProt O75489)
inactive: [1] -0.01 | crizotinib -0.068 | [2] 0.085 | [3] -0.015 | duvelisib 0.064 | gandotinib -0.077 | tozasertib -0.004 | [4] 0.021 | doramapimod -0.059 | ispinesib -0.039 | bafetinib -0.033 | [5] 0.084 | nilotinib -0.031 | [6] 0.003 | dasatinib -0.047 | [7] 0.008 | [8] 0.052 | [9] -0.038 | tipifarnib -0.032 | mubritinib 0.055

NCSTN (UniProt Q92542)
inactive: [1] -0.02 | crizotinib -0.002 | [2] 0.143 | [3] 0.055 | duvelisib 0.01 | gandotinib -0.146 | tozasertib -0.013 | [4] -0.049 | doramapimod 0.029 | ispinesib 0.014 | bafetinib -0.041 | [5] 0.014 | nilotinib -0.007 | [6] 0.03 | dasatinib 0.006 | [7] -0.044 | [8] 0.041 | [9] -0.032 | tipifarnib 0.085 | mubritinib -0.002

NDUFV1 (UniProt P49821)
inactive: [1] 0.036 | crizotinib -0.055 | [2] 0.006 | [3] -0.031 | duvelisib 0.066 | gandotinib -0.018 | tozasertib -0.051 | [4] 0.01 | doramapimod 0.008 | ispinesib -0.044 | bafetinib -0.054 | [5] 0.052 | nilotinib -0.028 | [6] 0.018 | dasatinib -0.087 | [7] -0.038 | [8] 0.028 | [9] 0.043 | tipifarnib 0.045 | mubritinib 0.021

Copied from the results shown (two entries):
NAA35 (UniProt Q5VZE5)
inactive: [1] 0.042 | crizotinib -0.069 | [2] -0.013 | [3] -0.026 | duvelisib 0.027 | gandotinib -0.023 | tozasertib -0.061 | [4] 0.022 | doramapimod 0.025 | ispinesib 0.007 | bafetinib -0.035 | [5] 0.065 | nilotinib -0.013 | [6] 0.001 | dasatinib -0.106 | [7] -0.004 | [8] 0.042 | [9] -0.001 | tipifarnib -0.01 | mubritinib 0.004

NAXD (UniProt Q8IW45)
inactive: [1] -0.016 | crizotinib 0.064 | [2] -0.041 | [3] -0.069 | duvelisib -0.012 | gandotinib 0.122 | tozasertib 0 | [4] -0.029 | doramapimod -0.002 | ispinesib 0.026 | bafetinib -0.034 | [5] 0.036 | nilotinib -0.024 | [6] -0.02 | dasatinib 0 | [7] -0.051 | [8] 0.043 | [9] -0.04 | tipifarnib 0.027 | mubritinib 0.05

Next records

NDUFA8 (UniProt P51970)
inactive: [1] 0.026 | crizotinib 0.042 | [2] 0.012 | [3] -0.022 | duvelisib 0.081 | gandotinib -0.071 | tozasertib 0.016 | [4] 0.012 | doramapimod -0.029 | ispinesib -0.024 | bafetinib -0.165 | [5] 0.013 | nilotinib -0.009 | [6] 0.037 | dasatinib 0.011 | [7] -0.004 | [8] 0.035 | [9] 0.197 | tipifarnib 0.009 | mubritinib 0.014

NEBL isoform 2 (UniProt O76041)
inactive: [1] 0.061 | crizotinib 0.016 | [2] -0.081 | [3] 0.002 | duvelisib 0.035 | gandotinib 0.026 | tozasertib -0.024 | [4] -0.041 | doramapimod 0.042 | ispinesib -0.016 | bafetinib -0.05 | [5] -0.033 | nilotinib 0.055 | [6] -0.046 | dasatinib 0.019 | [7] -0.028 | [8] -0.007 | [9] 0.018 | tipifarnib 0.013 | mubritinib 0.056

NDRG3 (UniProt Q9UGV2)
inactive: [1] -0.006 | crizotinib -0.044 | [2] 0.043 | [3] 0.123 | duvelisib 0.03 | gandotinib -0.063 | tozasertib -0.026 | [4] 0.057 | doramapimod 0.036 | ispinesib 0.005 | bafetinib 0.028 | [5] 0.004 | nilotinib 0.009 | [6] -0.005 | dasatinib -0.038 | [7] 0.016 | [8] 0.015 | [9] 0.014 | tipifarnib -0.025 | mubritinib 0.039

NDUFAF4 (UniProt Q9P032)
inactive: [1] -0.005 | crizotinib -0.14 | [2] 0.06 | [3] -0.05 | duvelisib 0.048 | gandotinib -0.041 | tozasertib -0.005 | [4] 0.005 | doramapimod -0.032 | ispinesib -0.161 | bafetinib -0.128 | [5] -0.01 | nilotinib 0.012 | [6] -0.009 | dasatinib -0.084 | [7] -0.012 | [8] 0.064 | [9] 0.023 | tipifarnib 0.028 | mubritinib 0.035

MZT2B (UniProt Q6NZ67)
inactive: [1] -0.015 | crizotinib 0.099 | [2] -0.154 | [3] -0.118 | duvelisib -0.116 | gandotinib 0.028 | tozasertib -0.052 | [4] 0.031 | doramapimod 0.141 | ispinesib 0.044 | bafetinib 0.023 | [5] 0 | nilotinib 0.082 | [6] -0.045 | dasatinib 0.055 | [7] 0.037 | [8] 0.009 | [9] -0.026 | tipifarnib 0.043 | mubritinib 0.029

NAA30 (UniProt Q147X3)
inactive: [1] -0.014 | crizotinib 0.006 | [2] 0.025 | [3] 0.005 | duvelisib 0.007 | gandotinib -0.108 | tozasertib -0.095 | [4] 0.024 | doramapimod 0.013 | ispinesib -0.054 | bafetinib -0.09 | [5] 0.063 | nilotinib 0.016 | [6] 0.036 | dasatinib -0.091 | [7] -0.053 | [8] 0.027 | [9] 0.028 | tipifarnib -0.041 | mubritinib 0.109

NDUFAF3 (UniProt Q9BU61)
inactive: [1] 0.041 | crizotinib -0.006 | [2] 0.178 | [3] -0.108 | duvelisib 0.137 | gandotinib -0.021 | tozasertib -0.006 | [4] -0.007 | doramapimod 0.013 | ispinesib 0.01 | bafetinib -0.11 | [5] -0.009 | nilotinib -0.014 | [6] 0.013 | dasatinib -0.034 | [7] -0.032 | [8] 0.156 | [9] 0.011 | tipifarnib -0.018 | mubritinib 0.08

NDUFA13 (UniProt Q9P0J0)
inactive: [1] 0 | crizotinib 0.027 | [2] 0.085 | [3] -0.162 | duvelisib 0.042 | gandotinib -0.048 | tozasertib 0.018 | [4] 0.016 | doramapimod 0.049 | ispinesib -0.04 | bafetinib -0.071 | [5] 0.009 | nilotinib 0.014 | [6] -0.011 | dasatinib -0.012 | [7] 0.01 | [8] 0.081 | [9] 0.045 | tipifarnib -0.045 | mubritinib 0.009

NAT10 (UniProt Q9H0A0)
inactive: [1] 0.022 | crizotinib -0.129 | [2] -0.19 | [3] 0.559 | duvelisib -0.147 | gandotinib 0.019 | tozasertib 0.088 | [4] 0.123 | doramapimod 0.105 | ispinesib -0.141 | bafetinib 0.135 | [5] 0 | nilotinib -0.233 | [6] 0.023 | dasatinib 0.009 | [7] 0.103 | [8] -0.153 | [9] -0.005 | tipifarnib -0.003 | mubritinib -0.196
